The values below come from patent US20200079855A1 (Pfizer, published 2020).

The chains behind the UniProt entries cited, without tags or fusion partners. Where a name states a change or a piece, a line headed by the entry shows the natural chain unless it says otherwise.
UniProt P43406: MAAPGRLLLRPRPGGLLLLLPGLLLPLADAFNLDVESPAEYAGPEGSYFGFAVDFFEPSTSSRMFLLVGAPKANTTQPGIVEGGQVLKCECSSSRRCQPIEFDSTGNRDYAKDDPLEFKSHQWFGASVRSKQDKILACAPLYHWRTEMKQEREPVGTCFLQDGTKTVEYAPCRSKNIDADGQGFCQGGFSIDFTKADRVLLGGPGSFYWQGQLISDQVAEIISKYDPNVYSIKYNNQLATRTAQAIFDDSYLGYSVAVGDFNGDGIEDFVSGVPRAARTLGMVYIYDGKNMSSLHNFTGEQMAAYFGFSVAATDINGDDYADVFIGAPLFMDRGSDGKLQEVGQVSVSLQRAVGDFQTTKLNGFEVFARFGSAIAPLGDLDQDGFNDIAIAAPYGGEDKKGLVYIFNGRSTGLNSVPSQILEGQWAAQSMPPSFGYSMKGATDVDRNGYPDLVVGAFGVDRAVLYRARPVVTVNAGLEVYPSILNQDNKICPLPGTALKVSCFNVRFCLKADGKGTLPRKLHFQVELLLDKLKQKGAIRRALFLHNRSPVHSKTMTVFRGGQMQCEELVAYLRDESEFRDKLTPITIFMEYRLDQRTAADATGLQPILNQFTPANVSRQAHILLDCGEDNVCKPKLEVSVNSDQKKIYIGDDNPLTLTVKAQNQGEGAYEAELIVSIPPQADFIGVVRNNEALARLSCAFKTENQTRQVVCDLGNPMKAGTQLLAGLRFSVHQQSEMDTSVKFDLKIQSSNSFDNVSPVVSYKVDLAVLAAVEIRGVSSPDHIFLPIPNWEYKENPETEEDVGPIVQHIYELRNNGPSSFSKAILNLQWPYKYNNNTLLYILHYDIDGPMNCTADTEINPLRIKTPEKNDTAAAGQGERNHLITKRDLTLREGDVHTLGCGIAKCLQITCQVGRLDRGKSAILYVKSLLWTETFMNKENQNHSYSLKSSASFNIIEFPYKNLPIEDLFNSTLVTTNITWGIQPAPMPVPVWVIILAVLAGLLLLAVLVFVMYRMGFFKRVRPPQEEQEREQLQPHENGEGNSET
UniProt Q0VBD0: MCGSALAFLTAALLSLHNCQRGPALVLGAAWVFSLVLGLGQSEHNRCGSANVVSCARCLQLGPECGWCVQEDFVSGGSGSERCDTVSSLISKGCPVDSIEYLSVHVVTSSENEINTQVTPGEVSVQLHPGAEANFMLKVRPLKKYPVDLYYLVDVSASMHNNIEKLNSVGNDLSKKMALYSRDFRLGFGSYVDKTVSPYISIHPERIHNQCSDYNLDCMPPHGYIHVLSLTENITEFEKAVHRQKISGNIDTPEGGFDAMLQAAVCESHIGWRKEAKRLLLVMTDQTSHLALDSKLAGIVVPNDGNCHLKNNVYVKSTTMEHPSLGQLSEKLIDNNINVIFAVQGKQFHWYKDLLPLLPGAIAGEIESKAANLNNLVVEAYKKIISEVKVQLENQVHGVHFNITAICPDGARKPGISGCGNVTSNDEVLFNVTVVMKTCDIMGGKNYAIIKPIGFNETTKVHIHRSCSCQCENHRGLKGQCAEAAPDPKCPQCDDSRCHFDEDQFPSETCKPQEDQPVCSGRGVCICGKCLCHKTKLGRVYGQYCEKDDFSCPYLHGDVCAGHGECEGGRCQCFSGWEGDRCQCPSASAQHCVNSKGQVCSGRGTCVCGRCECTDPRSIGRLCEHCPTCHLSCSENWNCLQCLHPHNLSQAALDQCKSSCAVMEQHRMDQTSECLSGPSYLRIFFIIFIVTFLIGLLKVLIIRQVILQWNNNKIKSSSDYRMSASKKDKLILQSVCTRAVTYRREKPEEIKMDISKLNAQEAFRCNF

In assay [1] the target is mouse αvβ8 integrin on EMT6 cells (mouse) (UniProt P43406+Q0VBD0). Nature of the assay: flow cytometry of the EMT6 cell line, ADWA-11 against isotype staining. (A flow cytometer gives signals particle by particle.)
In assay [2] the target is mouse αvβ8 integrin on CCK168 cells (mouse) (UniProt P43406+Q0VBD0). As to the kind of experiment: flow cytometry of the CCK168 cell line, ADWA-11 against isotype staining.
In assay [3] the target is T1, recombinant mouse αvβ8 integrin (mouse, UniProt P43406 31-988; Q0VBD0 22-681, limits assumed).
T1 construct: Recombinant protein immobilised on the Biacore chip
As to the kind of experiment: SPR (Biacore), Fab. For orientation: SPR reads the build-up and loss of mass on a sensor chip optically.

Assay [4] deals with T2, mouse αvβ8 integrin on C8-S cells (mouse, UniProt P43406 31-1044; Q0VBD0 22-767). As to the kind of experiment: flow cytometry on live cells.
Assay [5] deals with T2, mouse αvβ8 integrin on C8-S cells. Nature of the assay: flow cytometry on live C8-S cells.

Positions count from the first letter of the chain named. Names and notes keep the numbering of the source. Results are given in words; binding and its absence hold for the method and conditions named. Some entries that bind do so weakly or less than the wild type.

B1: Mouse hybridoma antibody ADWA-11 (antibody, V domains shown)
VH: EVQLQQSGAELVRPGAFVKLSCKASGFNIKDYYMNWVLQRPEQGLEWIGWIDPDNGNTIYDPKFQGKASITADTSSNTAYLQLSSLTSEDTAVYYCARRLLMDYWGQGTSVTVSS
VL: DIVMTQAAPSVPVTPGESVSISCRSTKSLLHFNGNTYLFWFLQRPGQSPQRLIYYMSNLASGVPDRFSGRGSGTDFTLRISRVEAEDVGVYYCMQSLEYPFTFGTGTKLEIK
notes: Whole native murine IgG from the hybridoma; also called mADWA11; mADWA-11
With B1, the binding result in assay [1] and in assay [2] was “binds” each time.

B2: Mouse hybridoma ADWA-11 Fab (Fab, V domains shown)
VH: B1 VH
VL: B1 VL
notes: Fab; also called mFab; Ms ADWA11 Fab
Regarding B2, in assay [3], the binding result was “binds”.

B3: ADWA11 VH05-2/VK01(2.1) antibody (antibody, V domains shown)
VH: EVQLVESGGGLVQPGGSLRLSCAASGFNIKDYYMNWVRQAPGKGLEWVGWIDPDQGNTIYEPKFQGRFTISADTSKNSAYLQMNSLRAEDTAVYYCARRLLMDYWGQGTLVTVSS
VL: DIQMTQSPSSLSASVGDRVTITCRSTKSLSHFNGNTYLFWYQQKPGKAPKRLIYYMSNLASGVPSRFSGSGSGTDFTLTISSLQPEDFATYYCQQSLEYPFTFGGGTKVEIK
notes: also called ADWA11 2.1
For the molecule B3, the binding result in assay [4] was “binds”.

B4: ADWA11 2.4 Fab (Fab, V domains shown)
VH: B3 VH
VL: B3 VL with N58S
notes: Fab; also called ADWA11 5-2 2.4; ADWA11_5-2 2.4 Fab
Consider B4, for which the binding result in assay [3] is given as “binds”.

B5: ADWA11 2.4 (IgG) (antibody, V domains shown)
VH: B3 VH
VL: DIQMTQSPSSLSASVGDRVTITCRSTKSLSHFNGNTYLFWYQQKPGKAPKRLIYYMSSLASGVPSRFSGSGSGTDFTLTISSLQPEDFATYYCQQSLEYPFTFGGGTKVEIKR
notes: Human IgG1 effectorless (L234A, L235A, G237A), kappa; also called ADWA11 VH05-2/VK01(2.4); ADWA11_VH05-2_VK01(2.4)
On to B5, for which the binding entry in assay [4] and in assay [5] was “binds” each time.
